# According to ChEMBL document CHEMBL3124859, “Novel Peptidomimetic Hepatitis C Virus NS3/4A Protease Inhibitors Spanning the P2-P1' Region” (ACS Med Chem Lett, 2014):
# Assay: Solubility of the compound in phosphate buffered saline at pH 7.4 after 1 hr by LC-MS/MS analysis
# Settings: buffer
row,SMILES,solubility at 1 h [µM]
1,C=Cc1cc(C(NC(=O)NC(C)(C)C)C(=O)Nc2cccc(C(=O)NS(=O)(=O)c3ccc(C(F)(F)F)cc3)c2)ccc1Oc1cc(OC)nc(-c2ccccc2)n1 (configuration not stated),31
2,C=Cc1cc(C(NC(=O)OC(C)(C)C)C(=O)Nc2ccc(C(=O)NS(=O)(=O)c3ccc(C(F)(F)F)cc3)cc2)ccc1Oc1cc(OC)nc(-c2ccccc2)n1 (configuration not stated),37
